Test results taken from the supplement of paper PMC4635364.
Counter-ions that a name gives are not always drawn. Some of the results follow. Repeats in this data set agree poorly, so a single value says little.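 Human fetal ventral-midbrain neural progenitor line ReNCell VM, differentiated without mitogens. Images stained for doublecortin (early neurons) or tyrosine hydroxylase (dopaminergic neurons) were scored by blinded raters against untreated wells (0 = no change). Repeats and both raters were averaged, and compounds averaging 2 or higher were picked as hits for retesting.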 Where a SMILES comes first, the peptide text is derived from it.

Each molecule was assayed on ReNCell VM (assay: neuronal differentiation score (DCX+ cell fraction vs untreated, manual image score) (score (-3 to 3)); higher = more neuronal differentiation). Settings: library: LOPAC; 2 uM; 2 weeks.

Neuronal differentiation score, inactive:
CC(=O)SCC[N+](C)(C)C [Acetylthiocholine chloride] 0
FC(F)(F)c1ccccc1-n1ccnc1 [1-[2-(Trifluoromethyl)phenyl]imidazole] 0
CCN(CC)CCCC(C)Nc1c2ccc(Cl)cc2nc2ccc(OC)cc12 (centres undefined) [Quinacrine dihydrochloride] 0
COc1cc(/C=C(\C#N)C(=O)c2ccc(O)c(O)c2)cc(I)c1O [I-OMe-Tyrphostin AG 538] 0
CC(C)C[C@H](NP(=O)(O)O[C@H]1O[C@H](C)[C@@H](O)[C@H](O)[C@@H]1O)C(=O)N[C@@H](Cc1c[nH]c2ccccc12)C(=O)O [Phosphoramidon disodium] 0
Cc1ccccc1CNc1ncnc2c1ncn2[C@@H]1O[C@H](CO)[C@@H](O)[C@H]1O [Metrifudil] 0
COc1ccc2c(c1)c(CC(=O)O)c(C)n2Cc1ccc(Cl)cc1 [1-(4-Chlorobenzyl)-5-methoxy-2-methylindole-3-acetic acid] 0

Same assay, conditions: library: Spectrum; 2 uM; 2 weeks

Neuronal differentiation score, inactive:
NC[C@H]1CC[C@H](C(=O)O)CC1 0
CC(C)CCC[C@@H](C)[C@H]1CC[C@H]2[C@@H]3CC=C4C[C@@H](O)CC[C@]4(C)[C@H]3CC[C@]12C 0
CCC(=O)OCC(=O)[C@@]1(OC(=O)CC)[C@@H](C)C[C@H]2[C@@H]3CCC4=CC(=O)C=C[C@]4(C)[C@@]3(F)[C@@H](O)C[C@@]21C 0
Cc1cc2nc3ccc(N(C)C)cc3[s+]c2cc1N 0
CN(C)[C@@H]1C(O)=C(C(N)=O)C(=O)[C@@]2(O)C(O)=C3C(=O)c4c(O)cccc4[C@@](C)(O)[C@H]3[C@H](O)[C@@H]12 0
CCCCOc1ccc(OCCCN2CCOCC2)cc1 0
COC(=O)[C@@H]1OC(=O)C2OC23[C@@]1(C)CCC1[C@]2(C)C(C[C@@H](O)[C@]13C)C(C)(C)[C@H](OC(C)=O)C[C@@H]2OC(C)=O (some centres undefined) 0
COc1ccc(-c2coc3cc(O)ccc3c2=O)c(O)c1O 0
COc1ccc(-c2oc3cc(OC)c(OC)c(OC)c3c(=O)c2OC)cc1 0
C=C1C[C@]23C[C@@]1(O)CC[C@H]2[C@@]12C=C[C@H](O)[C@@](C)(C(=O)O1)[C@H]2[C@@H]3C(=O)O 0
CCCOc1ccc2[nH]c(NC(=O)OC)nc2c1 0
O=C(C1CCCCC1)N1CC(=O)N2CCc3ccccc3C2C1 (centres undefined) 0
CCCCCCCCCc1ccc(OCCOCCOCCOCCOCCOCCOCCOCCOCCO)cc1 0
CC(C)(C)CC(C)(C)c1ccc(OCCOCC[N+](C)(C)Cc2ccccc2)cc1 0
CCN(CC)CCOC(=O)c1ccc(N)cc1 1
NC(=O)CC[C@H](NC(=O)[C@@H](N)CO)C(=O)O (H-Ser-Gln-OH) 0
CC=CC1=C(C(=O)O)N2C(=O)[C@@H](NC(=O)[C@H](N)c3ccc(O)cc3)[C@H]2SC1 0
CC1CCc2cc(F)cc3c(=O)c(C(=O)O)cn1c23 (centres undefined) 0
CN(C)CC/C=C1/c2ccccc2Sc2ccc(Cl)cc21 0
C=C1C[C@H]2[C@@H]3C=C(C)C4=CC(=O)CC[C@]4(C)[C@H]3CC[C@]2(C)[C@@]1(OC(C)=O)C(C)=O -1
CCCCC(=O)Oc1ccccc1C(=O)O 0
Cc1cc(O)c2c(O)c3c(O)cccc3cc2c1 0

A draw from above in order of molecular weight, rising.
Neuronal differentiation score, inactive:
CCN(CC)CCOC(=O)c1ccc(N)cc1 1
CCCOc1ccc2[nH]c(NC(=O)OC)nc2c1 0
CC1CCc2cc(F)cc3c(=O)c(C(=O)O)cn1c23 (centres undefined) 0
Cc1cc2nc3ccc(N(C)C)cc3[s+]c2cc1N 0
CCCCOc1ccc(OCCCN2CCOCC2)cc1 0
COc1ccc(-c2coc3cc(O)ccc3c2=O)c(O)c1O 0
C=C1C[C@]23C[C@@]1(O)CC[C@H]2[C@@]12C=C[C@H](O)[C@@](C)(C(=O)O1)[C@H]2[C@@H]3C(=O)O 0
CC(C)CCC[C@@H](C)[C@H]1CC[C@H]2[C@@H]3CC=C4C[C@@H](O)CC[C@]4(C)[C@H]3CC[C@]12C 0
